According to US9585387B1, “PEHAM dendrimers for use in agriculture” (Starpharma Pty Ltd, priority 2009, dated 2017):

Assay: Soil column migration of Imidacloprid (Example 24 Part B)
Conditions: for Total amount of active in column: sum of three sections

Row | SMILES | Amount of active per weight of sand (Lower section) | Amount of active (Lower section of sand column) | Amount of active per weight of sand (Middle section) | Amount of active (Middle section of sand column) | Amount of active per weight of sand (Top section) | Amount of active (Top section of sand column) | Total amount of active in column
1 | O=[N+]([O-])NC1=NCCN1Cc1ccc(Cl)nc1 [Imidacloprid, reference compound] | 0.18 mg/g × 100 | 0.4 mg | 0.95 mg/g × 100 | 2.2 mg | 1.15 mg/g × 100 | 2.5 mg | 5.1 mg
2 | CCC(COCC(O)CN(CC(=O)[O-])CC(=O)[O-])(COCC(O)CN(CC(=O)[O-])CC(=O)[O-])COCC(O)CN(CC(=O)[O-])CC(=O)[O-].[Na+].[Na+].[Na+].[Na+].[Na+].[Na+] (centres unmarked) [Example 10, [(C)=TMPTGE; (FF)=Et; (IF1)=OH; (BR1)=IDA; (TF)=CO2Na; G=1]] | 0.60 mg/g × 100 | 1.15 mg | 0.53 mg/g × 100 | 1.2 mg | 1.09 mg/g × 100 | 2.3 mg | 4.65 mg
3 | CCC(COCC(O)CN(CCO)CCO)(COCC(O)CN(CCO)CCO)COCC(O)CN(CCO)CCO (centres unmarked) [Example 2, [(C)=TMPTGE; (FF)=Et; (IF1)=OH; (BR1)=DEA; (TF)=OH; G=1]] | 0.90 mg/g × 100 | 1.9 mg | 0.73 mg/g × 100 | 1.7 mg | 0.65 mg/g × 100 | 1.4 mg | 5.0 mg
4 | CCC(COCC(O)CN(CC(=O)[O-])CC(=O)[O-])(COCC(O)CN(CC(=O)[O-])CC(=O)[O-])COCC(O)CN(CC(=O)[O-])CC(=O)[O-].CCCC[N+](CCCC)(CCCC)CCCC.CCCC[N+](CCCC)(CCCC)CCCC.CCCC[N+](CCCC)(CCCC)CCCC.CCCC[N+](CCCC)(CCCC)CCCC.CCCC[N+](CCCC)(CCCC)CCCC.CCCC[N+](CCCC)(CCCC)CCCC (centres unmarked) [Example 12, [(C)=TMPTGE; (FF)=Et; (IF1)=OH; (BR1)=IDA; (TF)=CO2NBu4; G=1]] | 0.83 mg/g × 100 | 1.85 mg | 0.39 mg/g × 100 | 0.9 mg | 0.97 mg/g × 100 | 1.9 mg | 4.65 mg
5 | CCC(COCC(O)CN(CCN)CCN)(COCC(O)CN(CCN)CCN)COCC(O)CN(CCN)CCN (centres unmarked) [Example 14, [(C)=TMPTGE; (IF1)=OH; (BR1)=DETA; (TF)=Primary NH2; G=1]] | 0.87 mg/g × 100 | 1.8 mg | 0.75 mg/g × 100 | 1.7 mg | 0.56 mg/g × 100 | 1.2 mg | 4.7 mg
